Reference: paper PMC12670160, “A drug-repurposing screen of FDA- and EMA-approved drugs identifies two NF-κB inhibitors active against eumycetoma” (Journal of Antimicrobial Chemotherapy, 2025)
Structures can show the parent of a compound that is named as a salt. Out of some 5,300 compounds screened, about 130 (2.5%) showed an effect of 50% or more. Some of the results follow.

test system: M. mycetomatis strain mm55; settings: m. mycetomatis hyphae, 96 h, 2 µM

SMILES	% viability [%]
O=C(/C=C/c1ccc(O)cc1)C1=C(O)C(O)([C@@H]2O[C@H](CO)[C@@H](O)[C@H](O)[C@H]2O)C(O)=C([C@@H]2O[C@H](CO)[C@@H](O)[C@H](O)[C@H]2O)C1=O (stereo partly drawn) [ONC0002065, hydroxysafflor yellow a]	71.37
C/C(=C\C(N)C(=O)O)CP(=O)(O)O (stereo not drawn) [ONC0004111, cgp 37849]	128
COc1cc(C)[nH]c(=O)c1CNC(=O)c1c(C)n([C@H](C)C2CCOCC2)c2ccccc12 [ONC0001134, cpi360]	70.69
c1ccc2c(c1)sc1ccccc12 [ONC0000385, dibenzothiophene]	66.56
C=C(C)[C@@H]1[C@H]2OC(=O)[C@H]1[C@]1(O)C[C@H]3O[C@]34C(=O)O[C@H]2[C@]14C [ONC0004797, picrotoxinin]	48.22
O=C(C[S+]([O-])C(c1ccccc1)c1ccccc1)NO (stereo not drawn) [ONC0001184, adrafinil]	106.5
C[C@]12COC(=O)C[C@@H]1CC[C@@H]1[C@@H]2CC[C@@]2(C)[C@H]1CC[C@]2(C)O [ONC0001895, oxandrolone]	92.75
CCOP(=S)(OCC)Oc1nc(Cl)c(Cl)cc1Cl [ONC0003271, chlorpyrifos]	79.42
Cc1sc2c(c1C)C(c1ccc(Cl)cc1)=N[C@@H](CC(=O)OC(C)(C)C)c1nnc(C)n1-2 [ONC0005134, jq1]	102.1
CN1CCc2cc3c(cc2C1[C@@H]1OC(=O)c2c1ccc1c2OCO1)OCO3 (stereo partly drawn) [ONC0001472, bicuculline]	70.01
Cn1c(COP(=O)(NCCBr)NCCBr)cnc1[N+](=O)[O-] [ONC0001269, evofosfamide]	78.36
CC(=O)NC1N=C(c2ccccc2)c2ccccc2NC1=O (stereo not drawn) [ONC0001858]	90.13
Ic1cncc(OC[C@@H]2CCN2)c1 [ONC0001838, 5iodoa85380]	120.9
CC(C)CC(N)C1(c2ccc(Cl)cc2)CCC1 (stereo not drawn) [ONC0002665, bts54505]	62.54
CCc1cc2c(s1)-n1c(C)nnc1CN=C2c1ccccc1Cl [ONC0001021, etizolam]	83.85
Cc1ncc(OC[C@@]2(c3cccc(F)c3)C[C@H]2C(=O)Nc2ccc(F)cn2)c(C)n1 [ONC0001232, lemborexant]	126.3
C=CCC1(CC(C)C)C(=O)NC(=O)NC1=O [ONC0002224, butalbital]	58.87
Cn1cc(C(=O)c2cccc3ccccc23)cc1C(=O)O [ONC0003763, napirimus]	99.27
OC(c1ccccc1)(c1ccccc1)C1CCNCC1 [ONC0004811, azacyclonol]	81.59
Clc1ccc(C(c2ccc(Cl)cc2)C(Cl)(Cl)Cl)cc1 [ONC0004078, 44ddt]	116.6
COC(=O)/C=C/C(=O)N[C@@H]1CC[C@@]2(O)[C@H]3Cc4ccc(O)c5c4[C@@]2(CCN3CC2CC2)[C@H]1O5 [ONC0001459, betafunaltrexamine]	48.02
COc1cc(OC)c(OC)cc1C=O [ONC0004768, asaraldehyde asaronaldehyde]	73.41
CNC(=O)N(C)N=O [ONC0003332, nitrosodimethylurea]	73.1
CCC1(C)CC(=O)NC(=O)C1 [ONC0002781, bemegride]	128.5
CCCC(C)(COC(N)=O)COC(=O)NC(C)C (stereo not drawn) [ONC0000784, carisoprodol]	82.1
O=C1Nc2ccc(Cl)c3c2C1(CCCCN1CC=C(c2ccc(Cl)cc2)CC1)CCC3 (stereo not drawn) [ONC0000257, dr4485]	73.2
NC(=O)CN1CC(c2ccccc2)CC1=O (stereo not drawn) [ONC0001209, phenylpiracetam]	95.67

SMILES	% viability [%]
C[C@]12CC[C@@H](O)C[C@H]1CC[C@@H]1[C@@H]2CC[C@]2(C)C(=O)CC[C@@H]12 [ONC0002860, 3alphahydroxy5betaandrostan17one]	111.6
O=C(Nc1ccc(Br)cc1)c1cc(Br)cc(Br)c1O [ONC0002986, tribomsalan]	104.9
CC(=O)Nc1cc([As](=O)(O)O)ccc1O [ONC0003129, acetarsol]	76.19
NC(C(=O)O)c1cc(=O)[nH]o1 (stereo not drawn) [ONC0001481, ibotenicacid]	54.38
CCCCCCCCC(=O)NCc1ccc(O)c(OC)c1 [ONC0005301, nonivamide]	102.5
CCC(=O)OC(Cc1ccccc1)(c1ccccc1)C(C)CN(C)C (stereo not drawn) [ONC0002923, levopropoxyphene]	67.59
O=[N+]([O-])c1ccc(O)c([N+](=O)[O-])c1 [ONC0003307, 24dinitrophenol]	82.81
N[C@@]1(C(=O)O)CC[C@H](C(=O)O)C1.N[C@]1(C(=O)O)CC[C@@H](C(=O)O)C1 [ONC0000225, cisacpd]	82.26
Nc1cc2c3ccccc3ccc2c2ccccc12 [ONC0002168, 6aminochrysene]	84.82
Cc1cc(N2CCN([C@@H]3CN[C@H](C(=O)N4CCSC4)C3)CC2)n(-c2ccccc2)n1 [ONC0001798, teneligliptin]	125.9
COc1ccc(CN(C(=O)[C@@H](N)Cc2c(C)cc(C(N)=O)cc2C)[C@@H](C)c2nc(-c3ccccc3)c[nH]2)cc1C(=O)O [ONC0002092, eluxadoline]	69.65
c1ccc(CC(c2ccccc2)N2CCCCC2)cc1 (stereo not drawn) [ONC0000060, 112diphenylethylpiperidine]	45.07
CNC(C)(C)Cc1ccccc1 [ONC0002830, mephentermine sulfate]	106.4
C[C@]12CC[C@H](O)C[C@@H]1CC[C@@H]1[C@H]2CC[C@]2(C)C(=O)CC[C@@H]12 [ONC0005247, epiandrosterone 3androsterone]	106.6
C[C@]12CCC(=O)C=C1CC[C@@H]1[C@@H]2CC[C@@]2(C)[C@H]1CC[C@]2(C)O [ONC0001781, 17ü¾Œ–Œ¼methyltestosterone]	115.9
C#CCOC(=O)C1=CCCN(C)C1 [ONC0002535, arecaidinepropargylester]	66.39
CNC(C)CC1CCCCC1 (stereo not drawn) [ONC0002340, propylhexedrine]	61.82
COc1cccc2c1C(=O)c1c(O)c3c(c(O)c1C2=O)C[C@@](O)(C(=O)CO)C[C@@H]3O[C@H]1C[C@H](N2CCO[C@H](OC)C2)[C@H](O)[C@H](C)O1 [ONC0001900, nemorubicin]	89.6
CN1C[C@@H]2c3ccccc3Oc3ccc(Cl)cc3[C@H]2C1.CN1C[C@H]2c3ccccc3Oc3ccc(Cl)cc3[C@@H]2C1 [ONC0000731, asenapine maleate]	74.48
COc1ccc(C(=O)c2c(C)n(CCN3CCOCC3)c3ccccc23)cc1 [ONC0001936, pravadoline]	72.97
c1cc2c(c(N3CCNCC3)c1)OCCO2 [ONC0001200, eltoprazine hydrochloride]	81.55
CC(C)(N)Cc1ccccc1 [ONC0002302, phentermine]	88.57
CC(C)(C)OC(=O)c1ncn2c1[C@@H]1CCCN1C(=O)c1c(Br)cccc1-2 [ONC0000814, bretazenil]	65.32
C/C1=C/C[C@@H](/C(C)=C/c2csc(C)n2)OC(=O)C[C@H](O)C(C)(C)C(=O)[C@H](C)[C@@H](O)[C@@H](C)CCC1 [ONC0001804, epothilone d]	116.1
CCC(=O)O[C@H]1CCC2C3CCC4=CC(=O)CC[C@]4(C)C3CC[C@@]21C (stereo partly drawn) [ONC0003302, testosterone propionate]	66.81
C[C@H]1O[C@@H](O[C@H]2CC[C@@]3(C)[C@H](CC[C@@H]4[C@@H]3C[C@@H](O)[C@]3(C)[C@@H](C5=CC(=O)OC5)CC[C@]43O)C2)C[C@H](O)[C@@H]1O[C@H]1C[C@H](O)[C@H](O[C@H]2C[C@H](O)[C@H](O[C@@H]3O[C@H](CO)[C@@H](O)[C@H](O)[C@H]3O)[C@@H](C)O2)[C@@H](C)O1 [ONC0000269, deslanoside]	75.34
O=C(Oc1ccc([N+](=O)[O-])cc1)N1CCN(Cc2cccc(Oc3ccccc3)c2)CC1 [ONC0000188, jzl195]	87.43

An excerpt of these results, in markdown:

| SMILES | % viability [%] |
| --- | --- |
| C#CCOC(=O)C1=CCCN(C)C1 [ONC0002535, arecaidinepropargylester] | 66.39 |
| CNC(C)CC1CCCCC1 (stereo not drawn) [ONC0002340, propylhexedrine] | 61.82 |
| COc1cccc2c1C(=O)c1c(O)c3c(c(O)c1C2=O)C[C@@](O)(C(=O)CO)C[C@@H]3O[C@H]1C[C@H](N2CCO[C@H](OC)C2)[C@H](O)[C@H](C)O1 [ONC0001900, nemorubicin] | 89.6 |
| CN1C[C@@H]2c3ccccc3Oc3ccc(Cl)cc3[C@H]2C1.CN1C[C@H]2c3ccccc3Oc3ccc(Cl)cc3[C@@H]2C1 [ONC0000731, asenapine maleate] | 74.48 |
| COc1ccc(C(=O)c2c(C)n(CCN3CCOCC3)c3ccccc23)cc1 [ONC0001936, pravadoline] | 72.97 |
| c1cc2c(c(N3CCNCC3)c1)OCCO2 [ONC0001200, eltoprazine hydrochloride] | 81.55 |
| CC(C)(N)Cc1ccccc1 [ONC0002302, phentermine] | 88.57 |
| CC(C)(C)OC(=O)c1ncn2c1[C@@H]1CCCN1C(=O)c1c(Br)cccc1-2 [ONC0000814, bretazenil] | 65.32 |
| C/C1=C/C[C@@H](/C(C)=C/c2csc(C)n2)OC(=O)C[C@H](O)C(C)(C)C(=O)[C@H](C)[C@@H](O)[C@@H](C)CCC1 [ONC0001804, epothilone d] | 116.1 |
| CCC(=O)O[C@H]1CCC2C3CCC4=CC(=O)CC[C@]4(C)C3CC[C@@]21C (stereo partly drawn) [ONC0003302, testosterone propionate] | 66.81 |
| C[C@H]1O[C@@H](O[C@H]2CC[C@@]3(C)[C@H](CC[C@@H]4[C@@H]3C[C@@H](O)[C@]3(C)[C@@H](C5=CC(=O)OC5)CC[C@]43O)C2)C[C@H](O)[C@@H]1O[C@H]1C[C@H](O)[C@H](O[C@H]2C[C@H](O)[C@H](O[C@@H]3O[C@H](CO)[C@@H](O)[C@H](O)[C@H]3O)[C@@H](C)O2)[C@@H](C)O1 [ONC0000269, deslanoside] | 75.34 |
| O=C(Oc1ccc([N+](=O)[O-])cc1)N1CCN(Cc2cccc(Oc3ccccc3)c2)CC1 [ONC0000188, jzl195] | 87.43 |
